# No constants are given. Whether binding was seen depends on the method and setting. In cells and extracts the contact can be indirect. For some assays here: Binding calls can cover weak binding; strength is not graded here. For some assays here: Tags and fused reporters may be left off the sequences shown.
# T1: COX11 C219D-FLAG (human) (UniProt Q9Y6N1)
# T1 sequence: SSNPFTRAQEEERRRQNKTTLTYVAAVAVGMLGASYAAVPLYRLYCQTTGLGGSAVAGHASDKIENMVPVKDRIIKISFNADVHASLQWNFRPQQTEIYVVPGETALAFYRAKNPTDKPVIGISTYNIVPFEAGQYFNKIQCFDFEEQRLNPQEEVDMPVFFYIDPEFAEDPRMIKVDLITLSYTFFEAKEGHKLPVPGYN
# T2: SCO2-FLAG (human) (UniProt O43819)
# T2 sequence: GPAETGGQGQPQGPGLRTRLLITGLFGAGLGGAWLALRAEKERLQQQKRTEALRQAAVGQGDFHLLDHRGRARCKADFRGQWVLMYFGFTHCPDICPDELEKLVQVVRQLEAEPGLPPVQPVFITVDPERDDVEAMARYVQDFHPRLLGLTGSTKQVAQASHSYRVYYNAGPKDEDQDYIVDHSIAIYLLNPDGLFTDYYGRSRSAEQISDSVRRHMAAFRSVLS
# T3: SCO1-FLAG (human) (UniProt O75880)
# T3 sequence: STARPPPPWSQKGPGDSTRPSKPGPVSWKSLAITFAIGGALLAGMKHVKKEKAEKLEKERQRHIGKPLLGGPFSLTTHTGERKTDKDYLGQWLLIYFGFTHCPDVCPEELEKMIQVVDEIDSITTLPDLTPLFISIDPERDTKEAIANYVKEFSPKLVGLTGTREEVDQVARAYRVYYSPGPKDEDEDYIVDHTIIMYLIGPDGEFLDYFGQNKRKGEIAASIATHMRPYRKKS
# T4: PET191(C30A, C41A)-FLAG (human) (UniProt Q86WW8)
# T4 sequence: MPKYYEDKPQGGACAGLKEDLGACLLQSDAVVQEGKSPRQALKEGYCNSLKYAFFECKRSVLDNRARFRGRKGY
# T5: COX11-FLAG (human) (UniProt Q9Y6N1)
# T5 sequence: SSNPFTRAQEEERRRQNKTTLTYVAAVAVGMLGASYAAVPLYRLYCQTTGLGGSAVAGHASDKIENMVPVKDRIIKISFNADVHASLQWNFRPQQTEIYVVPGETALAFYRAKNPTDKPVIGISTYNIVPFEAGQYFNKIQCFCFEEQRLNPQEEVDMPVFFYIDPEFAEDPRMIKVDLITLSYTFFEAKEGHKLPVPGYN
# T6: COX16-FLAG (human) (UniProt Q9P0S2)
# T6 sequence: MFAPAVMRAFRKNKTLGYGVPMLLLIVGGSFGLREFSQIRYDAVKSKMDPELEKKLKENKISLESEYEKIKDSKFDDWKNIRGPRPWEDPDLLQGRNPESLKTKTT
# T7: PET191-FLAG (human) (UniProt Q86WW8)
# T7 sequence: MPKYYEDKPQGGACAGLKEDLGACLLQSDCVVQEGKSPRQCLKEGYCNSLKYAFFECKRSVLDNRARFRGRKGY
# T8: COX17-FLAG (human) (UniProt Q14061)
# T8 sequence: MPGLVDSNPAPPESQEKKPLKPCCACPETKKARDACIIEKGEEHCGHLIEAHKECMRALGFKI
# Key:
# [1] = target: T1, COX11 C219D-FLAG (human); test: cross-linking + co-IP; transient interactions: mitochondria treated with 1 mM DSP 1.5 h at 4 C (DMSO as vehicle control), quenched with 10 mM Tris-HCl, extracted in PBS, 0.4% DDM, anti-FLAG beads, immunoblotting for 13 candidate proteins; also in KO backgrounds and after chloramphenicol treatment
# [2] = target: T2, SCO2-FLAG (human); test: as above
# [3] = target: T3, SCO1-FLAG (human); test: as above
# [4] = target: T4, PET191(C30A, C41A)-FLAG (human); test: as above
# [5] = target: T5, COX11-FLAG (human); test: as above
# [6] = target: T6, COX16-FLAG (human); test: as above
# [7] = target: T7, PET191-FLAG (human); test: as above
# [8] = target: T8, COX17-FLAG (human); test: co-IP; stable interactions: mitochondria without crosslinker (DMSO vehicle), extracted in PBS, 0.4% DDM, anti-FLAG beads 4 h at 4 C, five washes in PBS 0.05% DDM, immunoblotting; for COX11-COX19 also after pre-incubation of mitochondria with 5 mM GSH
# [9] = target: T5, COX11-FLAG (human); test: as above
# [10] = target: T7, PET191-FLAG (human); test: as above
# [11] = target: COX10-FLAG (human); test: cross-linking + co-IP; transient interactions: mitochondria treated with 1 mM DSP 1.5 h at 4 C (DMSO as vehicle control), quenched with 10 mM Tris-HCl, extracted in PBS, 0.4% DDM, anti-FLAG beads, immunoblotting for 13 candidate proteins; also in KO backgrounds and after chloramphenicol treatment
Molecule,binding [1],binding [2],binding [3],binding [4],binding [5],binding [6],binding [7],binding [8],binding [9],binding [10],binding [11]
COX10 (endogenous) (human (endogenous in HEK293T)) (enzyme),binds,binds,binds,binds,binds,binds,binds,binds,binds,binds,–
"SURF1 (protein, UniProt Q15526 1-300) MAAVAALQLGLRAAGLGRAPASAAWRSVLRVSPRPGVAWRPSRCGSSAAEASATKAEDDSFLQWVLLLIPVTAFGLGTWQVQRRKWKLNLIAELESRVLAEPVPLPADPMELKNLEYRPVKVRGCFDHSKELYMMPRTMVDPVREAREGGLISSSTQSGAYVVTPFHCTDLGVTILVNRGFVPRKKVNPETRQKGQIEGEVDLIGMVRLTETRQPFVPENNPERNHWHYRDLEAMARITGAEPIFIDANFQSTVPGGPIGGQTRVTLRNEHLQYIVTWYGLSAATSYLWFKKFLRGTPGV",–,–,–,–,–,–,–,–,–,–,no binding

# — article PMC9232578
